For at least one compound, name, drawing or mass did not settle the structure. Where a SMILES comes first, the peptide text is derived from it. [ ]: non-standard residue; d: D form. pGlu = O=C1CC[C@@H](C(=O)O)N1
Test system: NOD mice with recent onset diabetes
Test: Effect of unmodified gastrin on fasting blood glucose and pancreatic insulin content in NOD mice with recent onset diabetes
Assay type: in vivo
Details: 3 μg/kg/day i.p. once daily for 14 days

## CC(C)C[C@H](NC(=O)[C@H](Cc1c[nH]c2ccccc12)NC(=O)CNC(=O)[C@H](Cc1ccc(O)cc1)NC(=O)[C@H](C)NC(=O)[C@H](CCC(=O)O)NC(=O)[C@H](CCC(=O)O)NC(=O)[C@H](CCC(=O)O)NC(=O)[C@H](CCC(=O)O)NC(=O)[C@H](CCC(=O)O)NC(=O)[C@H](CC(C)C)NC(=O)[C@H](Cc1c[nH]c2ccccc12)NC(=O)[C@@H]1CCCN1C(=O)CNC(=O)[C@@H]1CCC(=O)N1)C(=O)N[C@@H](CC(=O)O)C(=O)N[C@@H](Cc1ccccc1)C(N)=O [Compound B] ([pGlu]GPWLEEEEEAYGWLDF-NH2)
Day 35
  pancreatic insulin levels after treatment: about 0.6 ug of insulin/pancreas
Day 35, FIG. 2
  pancreatic insulin levels in comparison with pretreatment values: significantly elevated
Day 35 versus vehicle-treated control, FIG. 1
  fasting blood glucose levels (FBG): prevented some of the increase in glucose levels

Reference: patent US7803766B2, “Gastrin compositions and formulations, and methods of use and preparation” (Warath Pharmaceuticals, Inc, priority 2002, dated 2010)
